Data taken from article doi:10.1101/2022.09.11.507491.
Results are given in words; binding and its absence hold for the method and conditions named. Binding seen in cells or lysates may run through a third protein. Binding calls can cover weak binding; strength is not graded here.

Sequences of proteins named here, by UniProt entry; tags and fusion partners are left off. A change or cut given only in a name is not applied to a line headed by its entry.
UniProt P18089: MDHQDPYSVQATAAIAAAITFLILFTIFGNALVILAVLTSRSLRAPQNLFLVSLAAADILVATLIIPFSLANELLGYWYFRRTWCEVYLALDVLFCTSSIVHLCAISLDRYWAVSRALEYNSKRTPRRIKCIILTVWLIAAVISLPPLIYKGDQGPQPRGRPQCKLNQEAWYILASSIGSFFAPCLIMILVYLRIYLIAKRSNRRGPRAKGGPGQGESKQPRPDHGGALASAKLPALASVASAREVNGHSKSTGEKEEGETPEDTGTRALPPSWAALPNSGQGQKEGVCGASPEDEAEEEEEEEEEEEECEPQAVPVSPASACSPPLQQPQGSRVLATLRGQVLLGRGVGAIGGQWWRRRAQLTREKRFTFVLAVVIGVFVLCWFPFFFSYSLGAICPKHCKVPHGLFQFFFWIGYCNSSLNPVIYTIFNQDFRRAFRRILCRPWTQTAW
UniProt Q92633: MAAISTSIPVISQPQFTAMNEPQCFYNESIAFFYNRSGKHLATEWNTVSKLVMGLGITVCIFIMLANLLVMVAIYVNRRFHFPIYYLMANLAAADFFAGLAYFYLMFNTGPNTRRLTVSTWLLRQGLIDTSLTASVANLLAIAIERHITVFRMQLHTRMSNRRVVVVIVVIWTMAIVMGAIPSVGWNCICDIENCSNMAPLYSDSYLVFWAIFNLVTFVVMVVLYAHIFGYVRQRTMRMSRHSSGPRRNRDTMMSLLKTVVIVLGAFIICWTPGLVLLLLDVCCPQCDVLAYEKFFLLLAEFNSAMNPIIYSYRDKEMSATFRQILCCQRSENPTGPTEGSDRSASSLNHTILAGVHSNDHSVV
UniProt P08913: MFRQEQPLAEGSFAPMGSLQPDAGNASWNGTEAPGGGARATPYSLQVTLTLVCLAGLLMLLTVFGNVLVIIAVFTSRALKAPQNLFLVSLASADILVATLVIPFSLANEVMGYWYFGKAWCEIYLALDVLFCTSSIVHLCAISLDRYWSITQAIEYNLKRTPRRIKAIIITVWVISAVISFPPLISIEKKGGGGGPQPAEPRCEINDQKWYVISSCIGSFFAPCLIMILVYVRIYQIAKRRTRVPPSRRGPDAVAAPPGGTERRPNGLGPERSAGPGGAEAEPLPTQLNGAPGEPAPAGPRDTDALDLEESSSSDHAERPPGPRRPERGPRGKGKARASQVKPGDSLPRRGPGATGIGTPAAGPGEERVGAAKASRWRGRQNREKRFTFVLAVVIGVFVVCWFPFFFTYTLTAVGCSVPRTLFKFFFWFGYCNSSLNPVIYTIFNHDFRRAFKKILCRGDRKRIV
UniProt P08753: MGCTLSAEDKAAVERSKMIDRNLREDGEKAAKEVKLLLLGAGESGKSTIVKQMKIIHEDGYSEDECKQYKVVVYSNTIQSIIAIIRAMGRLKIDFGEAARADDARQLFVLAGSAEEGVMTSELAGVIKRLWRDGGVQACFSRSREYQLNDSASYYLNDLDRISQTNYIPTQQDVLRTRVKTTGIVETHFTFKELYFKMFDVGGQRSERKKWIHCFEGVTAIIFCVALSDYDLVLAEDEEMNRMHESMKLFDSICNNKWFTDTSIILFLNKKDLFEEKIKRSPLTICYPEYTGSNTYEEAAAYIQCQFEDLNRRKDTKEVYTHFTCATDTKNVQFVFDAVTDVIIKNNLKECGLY

Columns and labels:
Experiment in all cases: pull-down
[1] = molecular target: isolated third intercellular loop (icl3) of alpha 2B adrenergic receptor (UniProt P18089)
[2] = molecular target: isolated third intercellular loop (icl3) of Lysophosphatidic Acid Receptor 1 (LPAR1) (UniProt Q92633)
[3] = molecular target: isolated third intercellular loop (icl3) of alpha 2A adrenergic receptor (UniProt P08913)

Measured: binding

Gαi3-FLAG, non-phosphorylated (from UniProt P08753 1-354)
binds: all assays above

Gαi3-FLAG, phosphotyrosinated (induced by EGF) (from UniProt P08753 1-354)
binds: all assays above
